These are yes or no findings as the source states them, for the method shown. Binding can be weak; no strength is given. Blank lines part the entries; values can stand above or below the binder they belong to.
Biological target: HLA-DRB3*0202 (human)
Experiment: not specified ('The methods described above')

- binding: binds
B1: SSX-2 peptide p98-112 (peptide)
peptide: QMTFGRLQGISPKIM
notes: also called p98-111 (as printed once); SSX-2 98-112

- binding: binds
Binder: FGRLQGISPKIMPKK [SSX-2 peptide p101-115]

From patent publication US20110293648A1 (LUDWIG INSTITUTE FOR CANCER RESEARCH, published 2011)
